Measurements from paper PMC5951847.

Sequences of proteins named here, by UniProt entry; tags and fusion partners are left off.
UniProt P31941, whole entry E72A: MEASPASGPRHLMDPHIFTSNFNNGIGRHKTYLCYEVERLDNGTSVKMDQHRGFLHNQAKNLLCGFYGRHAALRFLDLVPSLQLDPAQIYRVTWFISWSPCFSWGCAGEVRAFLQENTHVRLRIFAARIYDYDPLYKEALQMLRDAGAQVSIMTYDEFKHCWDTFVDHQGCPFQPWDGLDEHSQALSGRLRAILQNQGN

Target: A3A(E72A) (Homo sapiens) (UniProt P31941)
Assay: fluorescence anisotropy
Settings: pH above 8.0 (8.5, 9.0); 50 mM MES pH 6.0, 100 mM NaCl, 0.5 mM TCEP, room temperature overnight, 10 nM TAMRA-oligo; competition with 300 nM A3A(E72A); pH series: acetate 4.0-5.0, MES 5.5-6.5; recombinant protein; protein details: His6-SUMO removed by Ulp1 (untagged); label: 5' TAMRA; single-stranded DNA; letters put together from the description

“AAAATTCAAAAAA [Poly A-TTC (pH series, 4A-TTC-6A)]”: no binding.

For at least one entry, the source does not settle the construct or the ends of the probe. No signal at the amounts used counts as a negative.
